Measurements reported in paper PMC6321638.
These are yes or no findings as the source states them, for the method shown. Where a sequence is shown, tags or fusion partners need not be part of it.

Protein sequences, listed by entry. Tags and fused reporters are not part of them.
UniProt P12815: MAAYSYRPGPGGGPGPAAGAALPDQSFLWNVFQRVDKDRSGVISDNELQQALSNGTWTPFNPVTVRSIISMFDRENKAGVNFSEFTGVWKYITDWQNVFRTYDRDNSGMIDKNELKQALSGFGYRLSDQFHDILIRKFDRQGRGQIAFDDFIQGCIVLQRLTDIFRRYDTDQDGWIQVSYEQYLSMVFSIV

Molecular target: T1, His-SOUL^WT (wild-type SOUL fused to His-tag) (mouse) (UniProt Q9WU63)
T1 sequence: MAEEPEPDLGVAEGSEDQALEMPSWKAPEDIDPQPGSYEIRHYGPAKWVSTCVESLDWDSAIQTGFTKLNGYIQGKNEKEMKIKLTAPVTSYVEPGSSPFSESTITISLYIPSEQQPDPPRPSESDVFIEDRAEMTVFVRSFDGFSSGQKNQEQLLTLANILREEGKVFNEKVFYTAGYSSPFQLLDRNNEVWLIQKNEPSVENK
Assay: pull-down; His-tag pulldown as a3 but with EGTA instead of Ca2+; both purified

binding: no binding (condition: with EGTA)
Substance: GST-ALG-2^WT (wild-type ALG-2 fused to GST-tag) (from UniProt P12815 1-191)
